Experimental data as given in article PMC8102577.

system: FgAreB GATA domain (FgAreBGATA-His); assay: EMSA; details: recombinant protein; protein details: His (pET32a); label: 3' biotin

Row | Sequence | binding result
1 | TATTAGTGATTATCAATCTCATAGCAATGATTTGA (double strand) [FgFHB2 promoter WT probe] | binds
2 | TCCAAGATTTTATCTTCCCGACTATTGTTCCACAGCAC (double strand) [FgNOR promoter WT probe] | binds
3 | TCTATCACGACATCTATAGATTTATCTCATCTACTACTACTATCT (double strand) [FgFHB1 promoter WT probe] | binds
4 | TGCGAGACTCTCTTATCTCCTCCTTCCGATAGTTCG (double strand) [FgGSNOR promoter WT probe] | binds

The exact form of at least one protein or probe is not confirmed.
